Reference: paper PMC4683056

Amino acid sequences for entries named in this document (tags omitted).
UniProt Q8IZD2: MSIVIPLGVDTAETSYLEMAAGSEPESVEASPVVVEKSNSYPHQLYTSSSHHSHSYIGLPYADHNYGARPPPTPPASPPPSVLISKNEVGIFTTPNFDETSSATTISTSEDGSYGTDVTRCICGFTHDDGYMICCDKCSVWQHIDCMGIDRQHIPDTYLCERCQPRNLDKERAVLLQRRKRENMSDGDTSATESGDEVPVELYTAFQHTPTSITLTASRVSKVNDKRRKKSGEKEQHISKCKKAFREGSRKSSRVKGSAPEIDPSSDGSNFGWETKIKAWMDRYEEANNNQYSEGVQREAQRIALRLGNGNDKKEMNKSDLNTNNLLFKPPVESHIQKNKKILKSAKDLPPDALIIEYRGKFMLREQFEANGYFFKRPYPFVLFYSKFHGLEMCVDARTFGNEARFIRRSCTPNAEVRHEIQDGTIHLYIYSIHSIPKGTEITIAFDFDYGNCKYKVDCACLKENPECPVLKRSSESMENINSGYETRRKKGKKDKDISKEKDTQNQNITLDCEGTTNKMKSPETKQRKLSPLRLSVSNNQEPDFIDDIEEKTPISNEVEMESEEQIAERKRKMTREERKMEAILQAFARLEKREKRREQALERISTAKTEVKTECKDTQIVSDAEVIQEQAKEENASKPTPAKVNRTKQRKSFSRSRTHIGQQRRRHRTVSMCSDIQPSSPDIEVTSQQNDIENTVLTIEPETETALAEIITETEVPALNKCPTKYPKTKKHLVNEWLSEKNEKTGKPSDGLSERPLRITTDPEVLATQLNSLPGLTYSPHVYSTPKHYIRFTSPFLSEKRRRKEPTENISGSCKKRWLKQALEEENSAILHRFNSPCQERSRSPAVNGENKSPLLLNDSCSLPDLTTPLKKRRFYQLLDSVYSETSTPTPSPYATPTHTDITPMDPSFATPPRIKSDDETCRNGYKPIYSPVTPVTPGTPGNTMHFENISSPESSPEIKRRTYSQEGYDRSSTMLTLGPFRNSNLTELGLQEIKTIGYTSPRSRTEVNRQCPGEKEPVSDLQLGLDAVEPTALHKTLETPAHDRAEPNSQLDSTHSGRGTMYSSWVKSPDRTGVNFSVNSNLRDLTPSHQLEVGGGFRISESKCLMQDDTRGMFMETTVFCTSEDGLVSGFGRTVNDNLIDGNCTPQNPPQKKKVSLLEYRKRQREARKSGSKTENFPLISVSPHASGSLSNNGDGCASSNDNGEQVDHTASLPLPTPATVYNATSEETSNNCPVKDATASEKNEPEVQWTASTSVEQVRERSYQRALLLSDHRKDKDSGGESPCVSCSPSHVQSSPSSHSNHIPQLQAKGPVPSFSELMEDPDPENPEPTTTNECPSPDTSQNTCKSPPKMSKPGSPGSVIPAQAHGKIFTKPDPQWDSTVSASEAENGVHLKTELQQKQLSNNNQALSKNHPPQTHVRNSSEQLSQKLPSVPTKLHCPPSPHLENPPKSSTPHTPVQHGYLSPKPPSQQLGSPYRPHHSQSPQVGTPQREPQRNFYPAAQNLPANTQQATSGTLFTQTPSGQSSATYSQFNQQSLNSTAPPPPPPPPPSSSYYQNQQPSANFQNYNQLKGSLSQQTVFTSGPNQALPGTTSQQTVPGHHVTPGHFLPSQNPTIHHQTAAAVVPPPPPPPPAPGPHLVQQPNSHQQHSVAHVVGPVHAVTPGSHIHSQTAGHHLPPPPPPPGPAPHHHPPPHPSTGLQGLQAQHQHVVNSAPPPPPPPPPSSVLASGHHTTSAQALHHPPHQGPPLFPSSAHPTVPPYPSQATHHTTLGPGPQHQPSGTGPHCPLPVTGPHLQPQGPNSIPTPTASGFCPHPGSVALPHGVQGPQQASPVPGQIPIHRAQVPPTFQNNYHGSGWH
UniProt Q93009: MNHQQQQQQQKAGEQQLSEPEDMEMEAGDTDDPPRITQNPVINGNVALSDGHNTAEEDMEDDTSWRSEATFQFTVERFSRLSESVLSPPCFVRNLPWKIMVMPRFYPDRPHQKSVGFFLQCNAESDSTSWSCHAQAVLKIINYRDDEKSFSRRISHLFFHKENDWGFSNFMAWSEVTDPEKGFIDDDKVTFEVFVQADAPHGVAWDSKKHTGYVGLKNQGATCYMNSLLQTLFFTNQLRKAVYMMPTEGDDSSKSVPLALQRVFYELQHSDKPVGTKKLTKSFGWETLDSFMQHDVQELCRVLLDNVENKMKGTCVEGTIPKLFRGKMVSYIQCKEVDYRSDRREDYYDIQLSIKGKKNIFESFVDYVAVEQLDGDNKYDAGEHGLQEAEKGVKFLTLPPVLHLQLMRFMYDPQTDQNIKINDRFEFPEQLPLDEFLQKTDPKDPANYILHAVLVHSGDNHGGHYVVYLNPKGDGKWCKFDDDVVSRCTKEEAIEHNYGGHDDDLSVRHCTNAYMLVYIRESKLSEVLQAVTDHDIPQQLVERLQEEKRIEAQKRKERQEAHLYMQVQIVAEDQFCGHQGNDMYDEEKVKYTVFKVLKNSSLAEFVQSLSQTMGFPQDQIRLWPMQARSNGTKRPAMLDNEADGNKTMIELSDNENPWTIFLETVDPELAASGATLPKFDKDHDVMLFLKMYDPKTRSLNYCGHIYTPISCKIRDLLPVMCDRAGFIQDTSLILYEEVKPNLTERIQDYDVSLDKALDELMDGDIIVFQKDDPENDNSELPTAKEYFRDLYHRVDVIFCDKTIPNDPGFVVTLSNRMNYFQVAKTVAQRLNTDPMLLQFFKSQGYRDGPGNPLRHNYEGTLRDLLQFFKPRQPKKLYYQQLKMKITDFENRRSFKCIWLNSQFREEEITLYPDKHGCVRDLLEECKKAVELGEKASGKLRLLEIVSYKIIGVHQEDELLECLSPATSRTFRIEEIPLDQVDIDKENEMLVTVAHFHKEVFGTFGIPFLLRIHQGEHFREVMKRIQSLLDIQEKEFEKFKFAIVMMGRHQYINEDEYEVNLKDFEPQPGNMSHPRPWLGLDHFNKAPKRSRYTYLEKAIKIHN

Target: 3×FLAG-tagged MLL5 (UniProt Q8IZD2)
Test: affinity purification with mass spectrometry; HEK293T transfected with pCDEF3-MLL5-3×FLAG or pCDEF3; M2 FLAG affinity gel 4°C 12 h, elution with 3×FLAG peptide, HPLC-MS/MS

binding: binds
Substance: USP7 (found by mass spectrometry with 3×FLAG-MLL5) (from UniProt Q93009 1-1102) (enzyme)

No constants are given. Whether binding was seen depends on the method and setting. In cells and extracts the contact can be indirect. Here binding means that the protein was enriched with, or labelled near, the bait; the list need not be complete.
